According to patent publication US20140370521A1, “IDENTIFICATION OF TWO NOVEL BIOMARKERS FOR NIEMANN-PICK DISEASE TYPE C” (The USA , as Represented by the Secretary, Department of …, priority 2011, published 2014):

Test system: Npc1-/- mouse liver
Experiment: Liver gene expression microarray, Npc1-/- versus control mice (Affymetrix Mouse GeneChip 1.0 ST)
Details: negative = lower in Npc1−/−
[1] = head prints "weeks" (column between 7 weeks and 11 weeks)

| Molecule | FC (fold-change of expression between Npc1−/− and control mice) (3 weeks of age) | FC (fold-change of expression between Npc1−/− and control mice) (5 weeks of age) | FC (fold-change of expression between Npc1−/− and control mice) (7 weeks of age) | FC (fold-change of expression between Npc1−/− and control mice) (11 weeks of age) | FC (fold-change of expression between Npc1−/− and control mice) [1] | FC (fold-change of expression between Npc1−/− and control mice) (1 week of age) |
| --- | --- | --- | --- | --- | --- | --- |
| Lgmn (protein, UniProt O89017 18-325, looked up) Legumain: VPVGVDDPEDGGKHWVVIVAGSNGWYNYRHQADACHAYQIIHRNGIPDEQIIVMMYDDIANSEENPTPGVVINRPNGTDVYKGVLKDYTGEDVTPENFLAVLRGDAEAVKGKGSGKVLKSGPRDHVFIYFTDHGATGILVFPNDDLHVKDLNKTIRYMYEHKMYQKMVFYIEACESGSMMNHLPDDINVYATTAANPKESSYACYYDEERGTYLGDWYSVNWMEDSDVEDLTKETLHKQYHLVKSHTNTSHVMQYGNKSISTMKVMQFQGMKHRASSPISLPPVTHLDLTPSPDVPLTILKRKLLRTN | 1.74 | 2.06 | 3.07 | 4.82 | 3.89 |  |
| Cd48 (protein, UniProt P18181 23-217, looked up) CD48 antigen: FQGHSIPDINATTGSNVTLKIHKDPLGPYKRITWLHTKNQKILEYNYNSTKTIFESEFKGRVYLEENNGALHISNVRKEDKGTYYMRVLRETENELKITLEVFDPVPKPSIEINKTEASTDSCHLRLSCEVKDQHVDYTWYESSGPFPKKSPGYVLDLIVTPQNKSTFYTCQVSNPVSSKNDTVYFTLPCDLARS | 1.63 | 1.90 | 2.27 | 3.32 | 3.21 |  |
| Cfh (protein, UniProt P06909 19-1234, looked up) Complement factor H: EDCKGPPPRENSEILSGSWSEQLYPEGTQATYKCRPGYRTLGTIVKVCKNGKWVASNPSRICRKKPCGHPGDTPFGSFRLAVGSQFEFGAKVVYTCDDGYQLLGEIDYRECGADGWINDIPLCEVVKCLPVTELENGRIVSGAAETDQEYYFGQVVRFECNSGFKIEGHKEIHCSENGLWSNEKPRCVEILCTPPRVENGDGINVKPVYKENERYHYKCKHGYVPKERGDAVCTGSGWSSQPFCEEKRCSPPYILNGIYTPHRIIHRSDDEIRYECNYGFYPVTGSTVSKCTPTGWIPVPRCTLKPCEFPQFKYGRLYYEESLRPNFPVSIGNKYSYKCDNGFSPPSGYSWDYLRCTAQGWEPEVPCVRKCVFHYVENGDSAYWEKVYVQGQSLKVQCYNGYSLQNGQDTMTCTENGWSPPPKCIRIKTCSASDIHIDNGFLSESSSIYALNRETSYRCKQGYVTNTGEISGSITCLQNGWSPQPSCIKSCDMPVFENSITKNTRTWFKLNDKLDYECLVGFENEYKHTKGSITCTYYGWSDTPSCYERECSVPTLDRKLVVSPRKEKYRVGDLLEFSCHSGHRVGPDSVQCYHFGWSPGFPTCKGQVASCAPPLEILNGEINGAKKVEYSHGEVVKYDCKPRFLLKGPNKIQCVDGNWTTLPVCIEEERTCGDIPELEHGSAKCSVPPYHHGDSVEFICEENFTMIGHGSVSCISGKWTQLPKCVATDQLEKCRVLKSTGIEAIKPKLTEFTHNSTMDYKCRDKQEYERSICINGKWDPEPNCTSKTSCPPPPQIPNTQVIETTVKYLDGEKLSVLCQDNYLTQDSEEMVCKDGRWQSLPRCIEKIPCSQPPTIEHGSINLPRSSEERRDSIESSSHEHGTTFSYVCDDGFRIPEENRITCYMGKWSTPPRCVGLPCGPPPSIPLGTVSLELESYQHGEEVTYHCSTGFGIDGPAFIICEGGKWSDPPKCIKTDCDVLPTVKNAIIRGKSKKSYRTGEQVTFRCQSPYQMNGSDTVTCVNSRWIGQPVCKDNSCVDPPHVPNATIVTRTKNKYLHGDRVRYECNKPLELFGQVEVMCENGIWTEKPKCRDSTGKCGPPPPIDNGDITSLSLPVYEPLSSVEYQCQKYYLLKGKKTITCRNGKWSEPPTCLHACVIPENIMESHNIILKWRHTEKIYSHSGEDIEFGCKYGYYKARDSPPFRTKCINGTINYPTCV | −1.55 |  | −1.66 | −2.40 | −1.35 | −1.33 |
| Il18bp (protein, UniProt Q9Z0M9 29-193, looked up) Interleukin-18-binding protein: TSAPQTTATVLTGSSKDPCSSWSPAVPTKQYPALDVIWPEKEVPLNGTLTLSCTACSRFPYFSILYWLGNGSFIEHLPGRLKEGHTSREHRNTSTWLHRALVLEELSPTLRSTNFSCLFVDPGQVAQYHIILAQLWDGLKTAPSPSQETLSSHSPVSRSAGPGVA | 1.43 | 1.39 | 1.71 | 2.19 | 1.82 |  |
| Cd44 (protein, UniProt P15379 23-778, looked up) CD44 antigen: QIDLNVTCRYAGVFHVEKNGRYSISRTEAADLCQAFNSTLPTMDQMKLALSKGFETCRYGFIEGNVVIPRIHPNAICAANHTGVYILVTSNTSHYDTYCFNASAPPEEDCTSVTDLPNSFDGPVTITIVNRDGTRYSKKGEYRTHQEDIDASNIIDDDVSSGSTIEKSTPEGYILHTYLPTEQPTGDQDDSFFIRSTLATIASTVHSKSHAAAQKQNNWIWSWFGNSQSTTQTQEPTTSATTALMTTPETPPKRQEAQNWFSWLFQPSESKSHLHTTTKMPGTESNTNPTGWEPNEENEDETDTYPSFSGSGIDDDEDFISSTIATTPRVSARTEDNQDWTQWKPNHSNPEVLLQTTTRMADIDRISTSAHGENWTPEPQPPFNNHEYQDEEETPHATSTTPNSTAEAAATQQETWFQNGWQGKNPPTPSEDSHVTEGTTASAHNNHPSQRITTQSQEDVSWTDFFDPISHPMGQGHQTESKDTDSSHSTTLQPTAAPNTHLVEDLNRTGPLSVTTPQSHSQNFSTLHGEPEEDENYPTTSILPSSTKSSAKDARRGGSLPTDTTTSVEGYTFQYPDTMENGTLFPVTPAKTEVFGETEVTLATDSNVNVDGSLPGDRDSSKDSRGSSRTVTHGSELAGHSSANQDSGVTTTSGPMRRPQIPEWLIILASLLALALILAVCIAVNSRRRCGQKKKLVINGGNGTVEDRKPSELNGEASKSQEMVHLVNKEPSETPDQCMTADETRNLQSVDMKIGV | 1.48 | 1.63 | 2.64 | 3.22 | 2.33 |  |
| Frzb (protein, UniProt P97401 33-323, looked up) Secreted frizzled-related …: AACEPVRIPLCKSLPWNMTKMPNHLHHSTQANAILAMEQFEGLLGTHCSPDLLFFLCAMYAPICTIDFQHEPIKPCKSVCERARQGCEPILIKYRHSWPESLACDELPVYDRGVCISPEAIVTADGADFPMDSSTGHCRGASSERCKCKPVRATQKTYFRNNYNYVIRAKVKEVKMKCHDVTAVVEVKEILKASLVNIPRDTVNLYTTSGCLCPPLTVNEEYVIMGYEDEERSRLLLVEGSIAEKWKDRLGKKVKRWDMKLRHLGLGKTDASDSTQNQKSGRNSNPRPARS | 1.31 | 1.51 | 1.90 | 2.27 | 2.19 |  |
| Il1b (protein, UniProt P10749 118-269, looked up) Interleukin-1 beta: VPIRQLHYRLRDEQQKSLVLSDPYELKALHLNGQNINQQVIFSMSFVQGEPSNDKIPVALGLKGKNLYLSCVMKDGTPTLQLESVDPKQYPKKKMEKRFVFNKIEVKSKVEFESAEFPNWYISTSQAEHKPVFLGNNSGQDIIDFTMESVSS |  | −1.32 | −1.41 | −1.46 | −1.49 | −1.65 |
| Il7r (protein, UniProt P16872 21-459, looked up) Interleukin-7 receptor …: ESGNAQDGDLEDADADDHSFWCHSQLEVDGSQHLLTCAFNDSDINTANLEFQICGALLRVKCLTLNKLQDIYFIKTSEFLLIGSSNICVKLGQKNLTCKNMAINTIVKAEAPSDLKVVYRKEANDFLVTFNAPHLKKKYLKKVKHDVAYRPARGESNWTHVSLFHTRTTIPQRKLRPKAMYEIKVRSIPHNDYFKGFWSEWSPSSTFETPEPKNQGGWDPVLPSVTILSLFSVFLLVILAHVLWKKRIKPVVWPSLPDHKKTLEQLCKKPKTSLNVSFNPESFLDCQIHEVKGVEARDEVESFLPNDLPAQPEELETQGHRAAVHSANRSPETSVSPPETVRRESPLRCLARNLSTCNAPPLLSSRSPDYRDGDRNRPPVYQDLLPNSGNTNVPVPVPQPLPFQSGILIPVSQRQPISTSSVLNQEEAYVTMSSFYQNK | 1.77 | 3.49 | 10.75 | 19.61 | 18.29 |  |

The expression values are mRNA levels of the gene; the protein chain is shown to identify it.
